Experimental data as given in patent publication US20130012527A1, “PREQ1 RIBOSWITCHES AND METHODS AND COMPOSITIONS FOR USE OF AND WITH PREQ1 RIBOSWITCHES” (YALE UNIVERSITY, priority 2007, published 2013).
Where two headings read alike, the source gives them in different places. At least one structure is not confirmed: it was looked up by name or label, or the drawing left a doubt.

Columns and labels:
[1] = test system: 52 queC RNA (B. subtilis queC element); assay: In-line probing analysis of 52 queC RNA; assay type: binding; details: for Kd: in-line probing over a range of ligand concentrations
106 queC RNA = assay: Equilibrium dialysis, competition with 3H-guanine; assay type: binding, B. subtilis; details: 100 nM 3H-guanine, 20 μM RNA, unlabeled compound at a concentration exceeding that of the RNA
From the text: To provide additional support for a specific physical interaction between preQ1 and the queC RNA motif, competitive binding experiments were done using an equilibrium dialysis apparatus containing two chambers separated by a permeable membrane with a molecular weight cut-off of 5000 Daltons (FIG. 4d). Because guanine is recognized by the queC motif with nanomolar affinity (FIG. 4c), we first added ^3H-guanine and a molar excess of 106 queC RNA individually to the respective chambers. […].
Samples containing either 100 nM ^3H-guanine or 20 μM 106 queC RNA, each prepared in the same buffer solution used for in-line probing, were added in 30 μL volumes to opposite chambers of a DispoEquilibrium Dialyzer (ED-1, Harvard Bioscience). Following equilibration at 25° C. for 10-15 h, aliquots of 5 μL were withdrawn and quantitated with a liquid scintillation counter. For competitive binding experiments, 3 μL of buffer containing 1 mM unlabeled test compound was subsequently delivered to the RNA-containing chamber, while the same volume of buffer was added to the opposite chamber. After another equilibration period, 5 μL aliquots were again removed to assess the distribution of ^3H-guanine.

[2] = test system: 106 queC RNA (queC motif from B. subtilis); assay: In-line probing analysis of 106 queC RNA

SMILES: NCC1C=Nc2nc(N)[nH]c(=O)c21 (stereo not drawn) [preQ1, 7-aminomethyl-7-deazaguanine]
- affinity of 52 queC for preQ1 relative to guanine ([1]; fold greater for preQ1): about 25 fold
- Kd ([1]; listed as PreQ1, read-out: Kd (apparent)): ~0.02 µM
- Kd ([1]; read-out: Kd (apparent)): 0.02 µM
- competition with 3H-guanine sequestration in the RNA chamber (106 queC RNA): competitively reversed
- pattern of spontaneous cleavage products versus absence of ligand ([2]; 1 μM or 10 μM preQ1): undergoes marked change
- Kd ([2]; read-out: dissociation constant (Kd), suggested by similar structure modulation at 1 μM and 10 μM): < 1 µM
